Data: paper PMC6981194

Amino acid sequences for entries named in this document (tags omitted).
UniProt P46460: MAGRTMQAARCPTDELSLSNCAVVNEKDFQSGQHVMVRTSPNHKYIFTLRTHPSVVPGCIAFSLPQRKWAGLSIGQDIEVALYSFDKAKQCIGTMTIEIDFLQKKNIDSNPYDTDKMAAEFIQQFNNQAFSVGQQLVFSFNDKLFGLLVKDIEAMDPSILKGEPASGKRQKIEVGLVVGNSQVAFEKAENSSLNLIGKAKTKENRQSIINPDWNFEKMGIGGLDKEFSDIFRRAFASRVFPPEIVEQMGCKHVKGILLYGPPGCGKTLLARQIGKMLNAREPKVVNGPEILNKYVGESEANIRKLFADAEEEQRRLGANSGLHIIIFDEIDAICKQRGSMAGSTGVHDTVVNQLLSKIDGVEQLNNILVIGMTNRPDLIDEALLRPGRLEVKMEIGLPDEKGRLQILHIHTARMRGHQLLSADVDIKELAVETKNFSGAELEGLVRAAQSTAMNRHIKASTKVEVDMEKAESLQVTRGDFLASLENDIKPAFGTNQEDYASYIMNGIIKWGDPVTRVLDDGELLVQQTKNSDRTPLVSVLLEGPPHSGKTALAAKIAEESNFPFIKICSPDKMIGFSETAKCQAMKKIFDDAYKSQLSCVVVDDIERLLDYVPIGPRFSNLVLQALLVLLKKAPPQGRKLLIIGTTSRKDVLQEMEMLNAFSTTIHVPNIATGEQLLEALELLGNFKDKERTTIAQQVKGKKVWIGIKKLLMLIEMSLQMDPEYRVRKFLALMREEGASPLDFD

Molecular target: T1, acid-sensing ion channel 1a (ASIC1a), endogenous in mouse brain and cultured mouse cortical neurons (mouse (endogenous in brain and cortical neurons)) (UniProt Q6NXK8)
T1 sequence: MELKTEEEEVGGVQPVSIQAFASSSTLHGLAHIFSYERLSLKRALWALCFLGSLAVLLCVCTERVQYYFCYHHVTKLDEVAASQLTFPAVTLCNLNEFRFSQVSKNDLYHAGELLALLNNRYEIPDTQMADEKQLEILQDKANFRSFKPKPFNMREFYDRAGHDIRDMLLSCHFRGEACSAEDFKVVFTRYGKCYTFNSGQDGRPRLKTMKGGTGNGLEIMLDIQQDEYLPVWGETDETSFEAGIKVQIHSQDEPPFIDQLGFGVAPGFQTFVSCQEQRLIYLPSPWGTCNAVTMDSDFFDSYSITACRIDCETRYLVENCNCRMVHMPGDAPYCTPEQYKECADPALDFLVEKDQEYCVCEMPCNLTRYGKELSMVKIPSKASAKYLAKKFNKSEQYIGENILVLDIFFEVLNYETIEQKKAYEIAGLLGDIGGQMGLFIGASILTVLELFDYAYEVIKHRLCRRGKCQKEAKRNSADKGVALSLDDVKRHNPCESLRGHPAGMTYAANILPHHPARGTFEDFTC
Test: affinity purification with mass spectrometry; immunoprecipitation with a polyclonal anti-ASIC1a antibody from contralateral and ischemic mouse brain hemispheres; SDS-PAGE, Coomassie blue, ~85 kDa band excised, trypsin digest, MALDI-TOF-MS

Question: With “N-ethylmaleimide-sensitive fusion ATPase (NSF), endogenous in mouse brain and cultured mouse cortical neurons (from UniProt P46460 1-744)” as the substance, how does the binding read?
Answer: The binding was “binds”.

These are yes or no findings as the source states them, for the method shown. Binding seen in cells or lysates may run through a third protein. Here binding means that the protein was enriched with, or labelled near, the bait; the list need not be complete.
